Laboratory results: the supplement of paper PMC10849652
The other results are listed elsewhere or left out.

The chains behind the UniProt entries cited, without tags or fusion partners. Where a name states a change or a piece, a line headed by the entry shows the natural chain unless it says otherwise.
UniProt Q9Y5N5: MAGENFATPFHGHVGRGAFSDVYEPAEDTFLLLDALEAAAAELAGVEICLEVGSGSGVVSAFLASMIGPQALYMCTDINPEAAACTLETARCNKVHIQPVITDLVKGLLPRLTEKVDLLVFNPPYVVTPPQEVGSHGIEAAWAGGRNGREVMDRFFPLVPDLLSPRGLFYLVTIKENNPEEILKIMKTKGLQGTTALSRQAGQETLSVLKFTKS
UniProt P55209: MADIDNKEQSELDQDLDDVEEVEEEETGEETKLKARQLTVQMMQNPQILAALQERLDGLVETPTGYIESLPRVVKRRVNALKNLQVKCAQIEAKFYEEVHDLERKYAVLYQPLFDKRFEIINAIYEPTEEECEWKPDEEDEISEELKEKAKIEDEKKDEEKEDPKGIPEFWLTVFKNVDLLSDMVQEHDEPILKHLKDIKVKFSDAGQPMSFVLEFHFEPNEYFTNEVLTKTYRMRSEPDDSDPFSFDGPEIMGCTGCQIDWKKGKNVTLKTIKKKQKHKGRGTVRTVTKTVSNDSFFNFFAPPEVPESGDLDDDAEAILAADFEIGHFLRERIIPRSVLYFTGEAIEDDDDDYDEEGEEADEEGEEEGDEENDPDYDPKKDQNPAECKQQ
NBDY, A0A0U1RRE5, UniProt A0A0U1RRE5, whole entry, looked up: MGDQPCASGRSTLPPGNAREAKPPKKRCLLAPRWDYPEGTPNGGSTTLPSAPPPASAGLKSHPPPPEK
UniProt Q5VVJ2: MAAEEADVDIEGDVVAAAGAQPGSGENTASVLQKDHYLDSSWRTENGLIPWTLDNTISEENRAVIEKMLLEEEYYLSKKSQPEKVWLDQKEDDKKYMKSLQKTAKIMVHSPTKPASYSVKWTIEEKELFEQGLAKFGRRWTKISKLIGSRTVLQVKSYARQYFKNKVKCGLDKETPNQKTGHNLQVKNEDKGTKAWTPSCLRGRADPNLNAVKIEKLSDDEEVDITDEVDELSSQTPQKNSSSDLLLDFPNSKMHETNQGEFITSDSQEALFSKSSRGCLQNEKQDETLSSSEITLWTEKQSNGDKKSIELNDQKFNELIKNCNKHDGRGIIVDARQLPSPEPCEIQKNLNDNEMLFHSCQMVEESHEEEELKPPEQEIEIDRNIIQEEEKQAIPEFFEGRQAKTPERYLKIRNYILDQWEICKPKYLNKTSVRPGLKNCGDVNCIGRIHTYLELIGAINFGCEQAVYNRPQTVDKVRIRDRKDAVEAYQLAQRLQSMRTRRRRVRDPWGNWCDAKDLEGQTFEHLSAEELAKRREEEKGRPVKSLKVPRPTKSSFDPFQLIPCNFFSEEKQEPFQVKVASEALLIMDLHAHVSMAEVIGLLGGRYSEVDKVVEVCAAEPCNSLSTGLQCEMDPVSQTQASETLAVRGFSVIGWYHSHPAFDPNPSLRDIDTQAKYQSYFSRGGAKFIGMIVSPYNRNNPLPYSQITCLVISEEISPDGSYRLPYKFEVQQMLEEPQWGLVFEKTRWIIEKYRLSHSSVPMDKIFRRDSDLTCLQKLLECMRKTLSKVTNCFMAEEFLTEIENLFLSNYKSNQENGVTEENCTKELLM
UniProt Q96S97: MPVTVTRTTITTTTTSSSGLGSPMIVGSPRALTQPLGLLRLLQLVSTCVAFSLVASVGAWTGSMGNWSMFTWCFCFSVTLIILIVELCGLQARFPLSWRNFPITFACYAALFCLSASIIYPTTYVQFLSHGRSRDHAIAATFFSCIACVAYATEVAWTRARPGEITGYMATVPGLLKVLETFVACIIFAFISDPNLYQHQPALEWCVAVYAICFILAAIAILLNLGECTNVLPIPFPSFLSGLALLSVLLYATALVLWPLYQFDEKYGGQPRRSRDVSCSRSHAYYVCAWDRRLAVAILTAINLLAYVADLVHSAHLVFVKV
UniProt Q9NR45: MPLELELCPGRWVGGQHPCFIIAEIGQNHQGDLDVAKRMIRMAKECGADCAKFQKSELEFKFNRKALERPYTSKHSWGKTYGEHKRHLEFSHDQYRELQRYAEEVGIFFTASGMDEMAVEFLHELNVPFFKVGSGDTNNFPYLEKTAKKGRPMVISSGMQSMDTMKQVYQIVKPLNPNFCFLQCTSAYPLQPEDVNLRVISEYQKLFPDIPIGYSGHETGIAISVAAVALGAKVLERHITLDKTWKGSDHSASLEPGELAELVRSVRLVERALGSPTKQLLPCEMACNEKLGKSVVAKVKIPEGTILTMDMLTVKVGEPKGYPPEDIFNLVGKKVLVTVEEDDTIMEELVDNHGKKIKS
UniProt Q6IBW4: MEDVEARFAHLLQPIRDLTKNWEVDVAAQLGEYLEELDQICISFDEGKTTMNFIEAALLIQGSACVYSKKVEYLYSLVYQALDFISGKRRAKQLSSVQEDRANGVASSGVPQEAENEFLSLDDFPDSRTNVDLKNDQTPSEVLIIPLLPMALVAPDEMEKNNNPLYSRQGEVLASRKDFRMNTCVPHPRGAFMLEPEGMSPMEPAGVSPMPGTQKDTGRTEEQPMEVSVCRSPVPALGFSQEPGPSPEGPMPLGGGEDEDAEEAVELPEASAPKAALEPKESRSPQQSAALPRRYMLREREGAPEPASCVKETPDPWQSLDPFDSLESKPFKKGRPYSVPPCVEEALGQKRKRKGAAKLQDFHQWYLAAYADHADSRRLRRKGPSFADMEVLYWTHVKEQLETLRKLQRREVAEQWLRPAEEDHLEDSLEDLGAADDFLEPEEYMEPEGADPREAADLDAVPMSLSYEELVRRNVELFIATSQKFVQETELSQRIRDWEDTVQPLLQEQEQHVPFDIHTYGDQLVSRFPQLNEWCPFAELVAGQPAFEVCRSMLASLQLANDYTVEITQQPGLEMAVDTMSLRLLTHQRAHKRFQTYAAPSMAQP
UniProt Q14686, whole entry, looked up: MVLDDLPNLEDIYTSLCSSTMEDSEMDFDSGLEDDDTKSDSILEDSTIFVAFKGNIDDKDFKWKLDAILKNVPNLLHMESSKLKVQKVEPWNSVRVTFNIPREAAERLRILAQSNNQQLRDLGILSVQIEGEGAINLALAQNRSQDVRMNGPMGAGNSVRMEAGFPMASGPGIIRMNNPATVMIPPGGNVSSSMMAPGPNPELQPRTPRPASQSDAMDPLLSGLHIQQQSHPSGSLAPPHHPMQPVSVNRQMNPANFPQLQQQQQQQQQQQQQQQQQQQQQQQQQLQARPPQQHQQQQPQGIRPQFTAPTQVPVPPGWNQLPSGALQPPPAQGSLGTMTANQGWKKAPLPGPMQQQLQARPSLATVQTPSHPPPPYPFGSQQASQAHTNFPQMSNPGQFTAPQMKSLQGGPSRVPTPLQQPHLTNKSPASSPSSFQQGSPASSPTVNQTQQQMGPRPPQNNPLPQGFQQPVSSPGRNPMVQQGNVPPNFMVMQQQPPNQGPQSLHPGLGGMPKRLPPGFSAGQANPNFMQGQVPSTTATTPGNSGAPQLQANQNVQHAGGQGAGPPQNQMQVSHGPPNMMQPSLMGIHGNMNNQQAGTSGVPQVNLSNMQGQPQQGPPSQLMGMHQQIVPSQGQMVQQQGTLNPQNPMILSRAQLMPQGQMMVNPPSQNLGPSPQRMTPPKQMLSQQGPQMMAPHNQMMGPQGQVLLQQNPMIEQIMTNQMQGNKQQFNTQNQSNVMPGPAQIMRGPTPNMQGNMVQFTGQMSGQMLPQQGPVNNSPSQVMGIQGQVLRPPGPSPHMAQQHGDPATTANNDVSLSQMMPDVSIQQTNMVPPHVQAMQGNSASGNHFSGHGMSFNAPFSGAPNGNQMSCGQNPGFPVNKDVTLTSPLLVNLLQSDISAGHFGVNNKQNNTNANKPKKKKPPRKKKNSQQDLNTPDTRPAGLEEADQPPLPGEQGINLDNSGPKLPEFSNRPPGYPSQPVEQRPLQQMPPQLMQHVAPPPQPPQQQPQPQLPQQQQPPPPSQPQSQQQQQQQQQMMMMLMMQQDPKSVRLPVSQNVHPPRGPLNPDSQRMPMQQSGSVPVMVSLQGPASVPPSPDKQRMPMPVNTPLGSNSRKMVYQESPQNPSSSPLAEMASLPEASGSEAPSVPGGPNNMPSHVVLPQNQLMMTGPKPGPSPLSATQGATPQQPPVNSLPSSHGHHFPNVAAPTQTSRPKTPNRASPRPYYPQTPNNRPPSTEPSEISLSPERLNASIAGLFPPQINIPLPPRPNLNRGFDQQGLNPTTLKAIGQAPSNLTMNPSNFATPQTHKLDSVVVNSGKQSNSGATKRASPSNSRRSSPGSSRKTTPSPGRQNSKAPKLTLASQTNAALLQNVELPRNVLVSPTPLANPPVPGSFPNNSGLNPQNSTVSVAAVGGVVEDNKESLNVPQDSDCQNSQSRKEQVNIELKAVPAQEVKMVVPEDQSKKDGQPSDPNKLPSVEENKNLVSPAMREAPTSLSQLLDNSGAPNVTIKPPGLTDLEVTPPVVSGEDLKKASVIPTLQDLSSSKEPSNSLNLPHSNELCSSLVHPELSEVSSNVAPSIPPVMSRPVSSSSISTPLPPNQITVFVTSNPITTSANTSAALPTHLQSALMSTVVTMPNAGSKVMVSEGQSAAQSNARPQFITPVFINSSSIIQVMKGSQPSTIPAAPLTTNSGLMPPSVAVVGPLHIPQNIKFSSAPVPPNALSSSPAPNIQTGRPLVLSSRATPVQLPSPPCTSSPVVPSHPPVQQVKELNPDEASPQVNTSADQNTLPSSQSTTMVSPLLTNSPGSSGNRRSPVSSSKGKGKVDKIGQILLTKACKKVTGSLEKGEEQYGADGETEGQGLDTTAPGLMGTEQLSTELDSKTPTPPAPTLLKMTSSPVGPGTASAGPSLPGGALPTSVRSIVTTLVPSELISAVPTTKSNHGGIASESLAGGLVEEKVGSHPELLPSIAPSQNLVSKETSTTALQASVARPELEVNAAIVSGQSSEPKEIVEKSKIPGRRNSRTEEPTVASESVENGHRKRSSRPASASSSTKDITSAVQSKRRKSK
UniProt P53602: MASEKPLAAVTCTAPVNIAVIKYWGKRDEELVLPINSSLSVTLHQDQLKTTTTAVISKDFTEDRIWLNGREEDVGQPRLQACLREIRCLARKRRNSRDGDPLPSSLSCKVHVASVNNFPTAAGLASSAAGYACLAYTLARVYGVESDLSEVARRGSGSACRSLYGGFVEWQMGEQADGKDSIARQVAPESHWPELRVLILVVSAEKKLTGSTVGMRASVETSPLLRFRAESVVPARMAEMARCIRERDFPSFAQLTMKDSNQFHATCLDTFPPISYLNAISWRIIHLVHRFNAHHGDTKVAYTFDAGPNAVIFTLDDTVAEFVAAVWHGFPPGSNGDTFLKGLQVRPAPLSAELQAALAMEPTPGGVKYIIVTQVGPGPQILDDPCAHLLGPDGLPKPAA
UniProt Q9UHQ1: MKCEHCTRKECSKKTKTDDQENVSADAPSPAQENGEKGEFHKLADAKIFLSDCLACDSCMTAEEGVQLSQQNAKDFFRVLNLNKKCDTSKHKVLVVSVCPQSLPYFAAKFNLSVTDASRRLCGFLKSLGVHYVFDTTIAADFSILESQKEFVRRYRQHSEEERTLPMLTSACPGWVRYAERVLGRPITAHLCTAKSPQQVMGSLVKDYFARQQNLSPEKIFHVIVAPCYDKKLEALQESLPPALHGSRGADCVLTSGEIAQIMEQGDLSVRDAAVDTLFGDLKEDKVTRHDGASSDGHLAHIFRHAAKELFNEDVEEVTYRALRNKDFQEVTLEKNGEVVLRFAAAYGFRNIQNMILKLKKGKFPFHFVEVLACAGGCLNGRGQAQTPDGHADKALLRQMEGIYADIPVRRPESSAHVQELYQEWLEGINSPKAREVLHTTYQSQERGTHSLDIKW
UniProt Q8NCW5: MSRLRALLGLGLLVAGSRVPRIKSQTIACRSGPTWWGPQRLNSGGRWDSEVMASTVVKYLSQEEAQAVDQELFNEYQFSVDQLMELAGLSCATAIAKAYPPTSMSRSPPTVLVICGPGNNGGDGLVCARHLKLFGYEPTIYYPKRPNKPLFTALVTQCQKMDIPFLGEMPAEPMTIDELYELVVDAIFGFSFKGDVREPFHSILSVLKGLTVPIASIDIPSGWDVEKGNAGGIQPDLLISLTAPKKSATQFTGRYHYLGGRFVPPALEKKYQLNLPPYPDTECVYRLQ
UniProt Q9HCD5: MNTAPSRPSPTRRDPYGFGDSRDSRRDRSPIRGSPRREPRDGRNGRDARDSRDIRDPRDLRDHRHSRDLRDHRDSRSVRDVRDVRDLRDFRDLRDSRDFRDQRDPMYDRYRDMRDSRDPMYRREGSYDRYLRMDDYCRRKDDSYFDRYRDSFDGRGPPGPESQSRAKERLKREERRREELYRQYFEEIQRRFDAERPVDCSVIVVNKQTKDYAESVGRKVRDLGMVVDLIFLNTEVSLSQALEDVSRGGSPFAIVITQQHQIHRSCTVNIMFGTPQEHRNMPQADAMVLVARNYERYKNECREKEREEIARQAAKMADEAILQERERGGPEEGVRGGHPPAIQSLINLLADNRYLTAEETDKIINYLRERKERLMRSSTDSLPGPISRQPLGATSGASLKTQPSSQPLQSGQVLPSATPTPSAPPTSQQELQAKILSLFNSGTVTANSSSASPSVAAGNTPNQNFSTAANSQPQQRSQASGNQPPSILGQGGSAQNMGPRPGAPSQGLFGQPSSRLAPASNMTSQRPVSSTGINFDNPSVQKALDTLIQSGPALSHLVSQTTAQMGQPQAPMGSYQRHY

How the values were obtained:
Test in all cases: log2 fold change, soluble protein after heating vs DMSO (PISA); higher = thermal stabilisation; K562 lysate, 10 uM; active = over 0.2 and 3.5 SD of the protein, either way, in both replicates (recomputed)
nilotinib = compound: Cc1cn(-c2cc(NC(=O)c3ccc(C)c(Nc4nccc(-c5cccnc5)n4)c3)cc(C(F)(F)F)c2)cn1 [nilotinib]
How it was run: (§1)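 The values are log-two fold changes in thermal stability compared with solvent controls and come from duplicates. They were obtained by TMTpro 16plex LC-MS/MS, with channel sums equalised, on the supernatant after 21,000xg for 90 min. That supernatant came from crude K562 extract at 1 mg/mL protein treated with 10 μM compound for 30 min, heated for 3 min across 48°C-58°C, pooled and brought to 0.5% NP-40 at 4°C.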

[1] = compound: Cc1nc(Nc2n[nH]c3c2CN(C(=O)N[C@H](CN(C)C)c2ccccc2)C3(C)C)c2sccc2n1
How it was run: as §1

dasatinib = compound: Cc1nc(Nc2ncc(C(=O)Nc3c(C)cccc3Cl)s2)cc(N2CCN(CCO)CC2)n1 [dasatinib]
How it was run: as §1

[2] = compound: Cc1ncc(-c2ccnc(Nc3ccc(S(C)(=O)=O)cc3)n2)n1C(C)C
How it was run: as §1

[3] = compound: Cn1cc(-c2ccc3c(c2)CCN3C(=O)Cc2cccc(C(F)(F)F)c2)c2c(N)ncnc21
How it was run: as §1

quisinostat = compound: Cn1cc(CNCC2CCN(c3ncc(C(=O)NO)cn3)CC2)c2ccccc21 [quisinostat]
How it was run: as §1

tipifarnib = compound: Cn1cncc1[C@@](N)(c1ccc(Cl)cc1)c1ccc2c(c1)c(-c1cccc(Cl)c1)cc(=O)n2C [tipifarnib]
How it was run: as §1

[4] = compound: NC(=O)Nc1cc(-c2cccc(F)c2)sc1C(=O)N[C@H]1CCCNC1
How it was run: as §1

[5] = compound: NC(=O)c1cnc(N[C@@H]2CCCC[C@@H]2N)nc1Nc1cccc(-n2nccn2)c1
How it was run: as §1

[6] = compound: NC1(c2ccc(-c3nc4ccn5c(=O)[nH]nc5c4cc3-c3ccccc3)cc2)CCC1
How it was run: as §1

[7] = compound: NCC(=O)Nc1ccc(-n2nc(C(F)(F)F)cc2-c2ccc3c(ccc4ccccc43)c2)cc1
How it was run: as §1

vorinostat = compound: O=C(CCCCCCC(=O)Nc1ccccc1)NO [vorinostat]
How it was run: as §1

silmitasertib = compound: O=C(O)c1ccc2c(c1)nc(Nc1cccc(Cl)c1)c1ccncc12 [silmitasertib]
How it was run: as §1

[8] = compound: O=C1NC(=O)C(c2cnc3ccccn23)=C1c1cn2c3c(cc(F)cc13)CN(C(=O)N1CCCCC1)CC2
How it was run: as §1

entospletinib = compound: c1cn2cc(-c3ccc4cn[nH]c4c3)nc(Nc3ccc(N4CCOCC4)cc3)c2n1 [entospletinib]
How it was run: as §1

Measured: log2 fold change

NCALD (UniProt P61601)
inactive: nilotinib 0.052 | [1] -0.102 | dasatinib 0.002 | [2] 0.007 | [3] 0.014 | quisinostat 0.061 | tipifarnib -0.083 | [4] -0.008 | [5] -0.005 | [6] 0.057 | [7] -0.051 | vorinostat -0.073 | silmitasertib -0.002 | [8] 0.031 | entospletinib 0.017

N6AMT1 (UniProt Q9Y5N5)
inactive: nilotinib -0.009 | [1] 0.1 | dasatinib 0.002 | [2] 0.018 | [3] 0.013 | quisinostat 0 | tipifarnib 0.06 | [4] -0.013 | [5] -0.027 | [6] 0.037 | [7] -0.043 | vorinostat 0.076 | silmitasertib -0.025 | [8] -0.007 | entospletinib -0.011

MYO19 (UniProt Q96H55)
inactive: nilotinib 0.116 | [1] -0.054 | dasatinib 0.07 | [2] -0.095 | [3] -0.127 | quisinostat -0.045 | tipifarnib -0.023 | [4] 0.055 | [5] 0.093 | [6] -0.027 | [7] 0.04 | vorinostat 0.049 | silmitasertib 0.152 | [8] 0.088 | entospletinib -0.064

MYO6 isoform 6 (UniProt Q9UM54)
inactive: nilotinib -0.065 | [1] 0 | dasatinib -0.196 | [2] 0.024 | [3] 0.098 | quisinostat -0.031 | tipifarnib -0.001 | [4] 0.034 | [5] -0.002 | [6] -0.051 | [7] -0.019 | vorinostat -0.037 | silmitasertib 0.014 | [8] 0.023 | entospletinib -0.001

NAP1L1 isoform 3 (UniProt P55209)
inactive: nilotinib -0.016 | [1] -0.005 | dasatinib -0.026 | [2] -0.053 | [3] -0.221 | quisinostat -0.196 | tipifarnib -0.041 | [4] 0.053 | [5] 0.021 | [6] 0.115 | [7] 0.196 | vorinostat -0.292 | silmitasertib 0.153 | [8] -0.238 | entospletinib -0.044

NBDY, A0A0U1RRE5
inactive: nilotinib -0.199 | [1] -0.11 | dasatinib 0.098 | [2] 0.112 | [3] -0.127 | quisinostat -0.069 | tipifarnib 0.102 | [4] 0.168 | [5] 0.006 | [6] -0.103 | [7] -0.038 | vorinostat 0.189 | silmitasertib -0.171 | [8] 0.131

Taken from the results shown (two entries):
MYO6 isoform 6 (UniProt Q9UM54)
inactive: nilotinib -0.065 | [1] 0 | dasatinib -0.196 | [2] 0.024 | [3] 0.098 | quisinostat -0.031 | tipifarnib -0.001 | [4] 0.034 | [5] -0.002 | [6] -0.051 | [7] -0.019 | vorinostat -0.037 | silmitasertib 0.014 | [8] 0.023 | entospletinib -0.001

NAP1L1 isoform 3 (UniProt P55209)
inactive: nilotinib -0.016 | [1] -0.005 | dasatinib -0.026 | [2] -0.053 | [3] -0.221 | quisinostat -0.196 | tipifarnib -0.041 | [4] 0.053 | [5] 0.021 | [6] 0.115 | [7] 0.196 | vorinostat -0.292 | silmitasertib 0.153 | [8] -0.238 | entospletinib -0.044

More entries

MYSM1 (UniProt Q5VVJ2)
inactive: nilotinib -0.033 | [1] 0.075 | dasatinib -0.008 | [2] -0.018 | [3] -0.02 | quisinostat -0.061 | tipifarnib 0.123 | [4] 0.008 | [5] 0 | [6] 0.007 | [7] 0.046 | vorinostat -0.242 | silmitasertib 0.014 | [8] -0.062 | entospletinib -0.011

MYADM (UniProt Q96S97)
inactive: nilotinib -0.046 | [1] 0.004 | dasatinib 0.011 | [2] 0.042 | [3] -0.057 | quisinostat -0.044 | tipifarnib 0.028 | [4] 0.067 | [5] -0.06 | [6] 0.016 | [7] 0.101 | vorinostat -0.007 | silmitasertib -0.06 | [8] 0.03 | entospletinib -0.028

NAA50 (UniProt Q9GZZ1)
inactive: nilotinib 0.006 | [1] -0.024 | dasatinib -0.006 | [2] 0.003 | [3] 0.02 | quisinostat -0.02 | tipifarnib 0.043 | [4] 0.018 | [5] 0.008 | [6] -0.021 | [7] 0.008 | vorinostat 0.025 | silmitasertib 0.034 | [8] -0.001 | entospletinib 0.023

NAMPT (UniProt P43490)
inactive: nilotinib -0.026 | [1] 0.028 | dasatinib -0.019 | [2] -0.028 | [3] -0.018 | quisinostat 0.013 | tipifarnib 0.066 | [4] -0.024 | [5] -0.015 | [6] 0.075 | [7] -0.023 | vorinostat 0.097 | silmitasertib -0.012 | [8] 0.014 | entospletinib 0.012

NANS (UniProt Q9NR45)
inactive: nilotinib 0.006 | [1] -0.007 | dasatinib 0.001 | [2] -0.013 | [3] -0.009 | quisinostat 0.07 | tipifarnib 0.024 | [4] 0.01 | [5] 0.001 | [6] 0.028 | [7] 0.004 | vorinostat 0.077 | silmitasertib 0.012 | [8] 0.044 | entospletinib 0.052

NCAPH2 (UniProt Q6IBW4)
inactive: nilotinib -0.029 | [1] 0 | dasatinib -0.011 | [2] -0.048 | [3] 0.066 | quisinostat 0.051 | tipifarnib -0.014 | [4] 0.058 | [5] 0.004 | [6] 0.025 | [7] 0.052 | silmitasertib 0 | [8] 0.037 | entospletinib -0.008
active: vorinostat -0.277

NCOA6 (UniProt Q14686)
inactive: nilotinib 0.023 | [1] -0.067 | dasatinib 0.027 | [2] 0 | [3] 0.034 | quisinostat 0.003 | tipifarnib -0.009 | [4] 0.015 | [5] -0.007 | [6] -0.007 | [7] 0.026 | vorinostat -0.018 | silmitasertib -0.007 | [8] 0.009 | entospletinib -0.04

MVD (UniProt P53602)
inactive: nilotinib 0.014 | [1] -0.004 | dasatinib -0.014 | [2] 0.033 | [3] -0.004 | quisinostat 0.058 | tipifarnib -0.02 | [4] 0.002 | [5] 0.021 | [6] 0.003 | [7] 0.014 | vorinostat -0.163 | silmitasertib -0.004 | [8] 0.016 | entospletinib 0

NAV1 (UniProt Q8NEY1)
inactive: nilotinib -0.004 | [1] -0.015 | dasatinib 0.054 | [2] 0.009 | [3] -0.018 | quisinostat -0.016 | tipifarnib -0.019 | [4] 0.022 | [5] -0.041 | [6] -0.037 | [7] 0.035 | vorinostat -0.132 | silmitasertib 0.007 | [8] -0.021 | entospletinib 0.02

NAP1L4 isoform 2 (UniProt Q99733)
inactive: nilotinib 0.041 | [1] -0.007 | dasatinib 0.006 | [2] -0.031 | [3] -0.003 | quisinostat 0.009 | tipifarnib -0.009 | [4] 0 | [5] 0.007 | [6] -0.009 | [7] -0.042 | vorinostat 0.11 | silmitasertib 0.013 | [8] -0.002 | entospletinib -0.01

NARF (UniProt Q9UHQ1)
active: vorinostat -0.243
inactive: nilotinib -0.029 | [1] 0.011 | dasatinib 0.01 | [2] -0.031 | [3] 0.014 | quisinostat -0.03 | tipifarnib -0.062 | [4] 0.017 | [5] -0.079 | [6] 0.005 | [7] -0.05 | silmitasertib -0.016 | [8] -0.008 | entospletinib -0.054

NAXE (UniProt Q8NCW5)
inactive: nilotinib 0.053 | [1] -0.007 | dasatinib 0.013 | [2] -0.005 | [3] -0.011 | quisinostat 0.058 | tipifarnib 0.03 | [4] -0.012 | [5] -0.02 | [6] 0.022 | [7] -0.069 | vorinostat 0.14 | silmitasertib -0.019 | [8] 0.011 | entospletinib -0.011

NAAA (UniProt Q02083)
inactive: nilotinib 0.289 | [1] -0.026 | dasatinib 0.012 | [2] -0.04 | [3] -0.015 | quisinostat 0.069 | tipifarnib -0.064 | [4] -0.004 | [5] 0.04 | [6] -0.147 | [7] -0.01 | vorinostat 0.076 | silmitasertib -0.013 | [8] -0.001 | entospletinib 0.049

NCOA1 (UniProt Q15788)
inactive: nilotinib -0.064 | [1] 0.031 | dasatinib -0.024 | [2] 0.023 | [3] 0.05 | quisinostat -0.041 | tipifarnib -0.033 | [4] 0.019 | [5] 0.035 | [6] -0.039 | [7] 0.027 | vorinostat -0.116 | silmitasertib -0.026 | [8] 0.029 | entospletinib -0.04

NCOA5 (UniProt Q9HCD5)
inactive: nilotinib -0.068 | [1] -0.146 | dasatinib -0.054 | [2] 0.039 | [3] 0 | quisinostat -0.055 | tipifarnib -0.093 | [4] 0.016 | [5] -0.022 | [6] -0.154 | [7] 0.014 | vorinostat 0.123 | silmitasertib -0.005 | [8] 0 | entospletinib -0.097
